PubChem BioAssay AID493014 (National Center for Advancing Translational Sciences (NCATS), 2011)
Where “and” joins values, the source holds several entries; their conditions need not be identical. Equal entries are not always repeated. The list shows a part of the results. Shown are side measurements of this screen, not its main read-out; they come without a call. Most of these compounds were active or inconclusive in the main read-out, so they are no random draw. Words in brackets tell the shape of the fitted curve; partial curves, single points and poor fits give uncertain potencies.

Assay: qHTS Assay to Find Inhibitors of Chronic Active B-Cell Receptor Signaling
Conditions: ABC-DLBCL IkBa-CBG/CBR reporter, luminescence ratio (green luciferase fused to IkBa over red control in TMD8 lymphoma cells), 4 h
Outline: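 TMD8 human ABC-DLBCL cells with doxycycline-inducible IκBα–green luciferase fusion and unfused red luciferase, in 0.5% FBS medium; compounds up to 46 uM, 4 h at 37C. Green/red luminescence ratio, filter-overlap corrected, fitted to concentration-response curves.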

[1] = measured here: CBR red luminescence, cell number
[2] = measured here: IkBa-CBG green luminescence

SMILES	AC50 [1]	AC50 [2]
O=C(CNC(=O)c1cccc(F)c1)N/N=C/c1ccc(O)c([N+](=O)[O-])c1	2.06 µM [falling, partial curve]	
CCC(C)c1ccccc1N1CC(C(=O)Nc2ccc(S(=O)(=O)N3CCOCC3)cc2)CC1=O (configuration not stated)	3.66 µM [falling, single point]	
Cc1ccc(N/N=C(\Cc2nc3ccccc3[nH]2)c2ccccc2)cc1		29.1 µM [falling, partial curve, poor fit]
CCOC(=O)c1c(NC(=O)COC(=O)c2ccc(O)cc2)sc(C(=O)N(C)C)c1C	5.01 µM [falling, partial curve, poor fit]	
COC(=O)C1=C(C)NC(=O)CC1c1ccc(F)c(Br)c1 (configuration not stated)	29.1 µM [rising, single point]	
CC(C)CC(C)c1cc(N)nc2nc3ccccc3n12 (configuration not stated)	35.5 µM [falling, single point]	
O=C1OCCN1C(=O)[C@H]1[C@H](c2ccc([N+](=O)[O-])cc2)C(c2cccc(Cl)c2)=NN1c1ccc(Br)cc1	23.1 µM [rising, partial curve, poor fit]	
O=C(Nc1cc(C(F)(F)F)ccc1-n1cnc2ccccc21)c1ccccc1	16.4 µM [falling, partial curve, poor fit]	
O=C(Oc1cccc(C(=S)N2CCOCC2)c1)c1cc([N+](=O)[O-])cc([N+](=O)[O-])c1	6.31 µM [falling, single point]	
CCOC(=O)Cc1csc(NC(=O)CCCN2C(=O)c3ccccc3C2=O)n1	1.84 µM [falling, full curve, poor fit]	
CCS(=O)(=O)c1ccc2oc(Nc3ccccc3C)nc2c1	11.2 µM [rising, partial curve]	
COc1ccc(/C=C/C(=O)Nc2cc(S(=O)(=O)N3CCOCC3)ccc2OC)cc1	29.1 µM [falling, single point]	23.1 µM [falling, partial curve, poor fit]
CC(=O)c1ccc(OCC(=O)N(C)CC(=O)Nc2ccc(N3CCOCC3)cc2)cc1	29.1 µM [rising, single point]	
CCOc1ccc(NC(=O)NC2CCCc3ccccc32)cc1 (configuration not stated)	2 µM [falling, partial curve, poor fit]	
COC(=O)c1cc(C(=O)OCC(=O)N(C)C2CCS(=O)(=O)C2)cc([N+](=O)[O-])c1 (configuration not stated)	15.8 µM [falling, single point]	
O=[N+]([O-])c1ccc(OCCCOc2cccc3cccnc23)cc1	35.5 µM [rising, single point]	
CCc1ccc(C2=NN(CCC(=O)NCCc3ccc(OC)c(OC)c3)C(=O)CC2)cc1	5.62 µM [rising, single point]	
CCOC(=O)CN(C)Cc1cn(C)nc1-c1ccc(Oc2ccccc2)cc1	6.31 µM [rising, single point]	
COc1ccc(Cc2nc(-c3ccc(NC(=O)c4cccnc4)cc3)no2)cc1	0.92 µM [rising, full curve]	
O=C(C1CCN(S(=O)(=O)c2cccc3cccnc23)CC1)N1CCc2ccccc21	7.08 µM [rising, full curve, poor fit]	

SMILES	AC50 [1]	AC50 [2]
CCc1ccccc1NC(=O)CCOc1ccccc1	4.47 µM [falling, partial curve] and 501 nM [falling, partial curve, poor fit]	
O=C(Nc1ccc(Cc2ccncc2)cc1)c1cccs1	3.98 µM [rising, partial curve, poor fit]	
COc1ccccc1CNS(=O)(=O)c1ccc(-c2cnc(C3CC3)o2)cc1	22.4 µM [rising, single point]	12.6 µM [falling, partial curve]
Cc1ccc(C)c(/C=N/NC(=S)NCCc2ccccc2)c1	23.1 µM [rising, single point]	
Cc1ccc2c(c1)C(C)(C)[C@]1(C)NC(=O)CCN21	17.8 µM [rising, single point]	
COc1ccnc(Oc2ccccc2)c1C(=O)N/C=N/OCc1ccc(F)cc1Cl	35.5 µM [falling, single point]	
CCOC(=O)c1sc(NC(=O)c2ccc(OC(C)=O)cc2)nc1C	0.316 µM [falling, full curve]	
Cc1nc2ncnn2c(C)c1CCC(=O)NC(C)CCc1ccco1 (configuration not stated)	35.5 µM [rising, single point]	
CCn1c(C)cc(C(=O)COC(=O)c2ccccc2[N+](=O)[O-])c1C	1.03 µM [rising, full curve, poor fit]	
CCCn1c(SCC(=O)Nc2ccccc2N2CCCCC2)nc2c1c(=O)n(C)c(=O)n2C	3.66 µM [falling, partial curve, poor fit]	
Cn1ccc2c(OCC(=O)NCc3ccccc3)cccc2c1=O	3.55 µM [falling, partial curve]	
Clc1ccc(N=C2SCCS2)cc1	14.1 µM [rising, partial curve, poor fit]	
CCOC(=O)CN1N=C(/C=C/c2ccc(C(C)C)cc2)CCC1=O	12.6 µM [rising, partial curve]	
CN=C1C([N+](=O)[O-])=CC=C2C1=NC1(CCCCC1)N2O	1.3 µM [rising, full curve, poor fit]	4.61 µM [falling, single point]
Cc1nc2ccccc2nc1OCc1ccccc1	14.6 µM [rising, partial curve]	
CCc1ccc2oc(C(=O)NCCc3ccc(S(N)(=O)=O)cc3)cc(=O)c2c1	20 µM [rising, single point]	
CCc1ccccc1NC1=NCC(=O)N1Cc1ccc2c(c1)OCO2	16.4 µM [falling, partial curve, poor fit]	
CCN1CCN(c2cc(C(C)C)nc3c(-c4ccccc4)c(C)nn23)CC1	35.5 µM [falling, single point]	
COc1ccc(-c2ccnc(-c3ccc(O)cc3)n2)cc1	17.8 µM [rising, single point]	28.2 µM [falling, partial curve, poor fit]
CC(O)c1cc2c(cc1NC(=O)c1cnn3c1NC(c1ccco1)CC3C(F)(F)F)OCO2 (configuration not stated)	29.1 µM [rising, single point]	

SMILES	AC50 [1]	AC50 [2]
CN(CCNC(=O)c1ccc(CS(=O)(=O)c2ccc(Br)cc2)o1)CCc1ccccc1	35.5 µM [falling, partial curve, poor fit]	
COc1cccc(-c2nnc(SCC(=O)Nc3cc(C)on3)o2)c1		35.5 µM [falling, partial curve, poor fit]
COc1ccc(/C=N/NC(=O)c2[nH]nc3c2CCc2ccccc2-3)cc1OC	29.1 µM [rising, single point]	6.51 µM [falling, full curve]
CCCn1nnnc1NCc1ccc(CC)cc1	35.5 µM [rising, single point]	
Cc1cc(C)nc(-n2nc(C)c(Sc3ccc(F)cc3)c2N)n1	12.6 µM [falling, single point]	
CCOC(=O)C1CCCN(C(=O)Cn2sc3nc(C)cc(C)c3c2=O)C1 (configuration not stated)	8.2 µM [falling, partial curve, poor fit]	29.1 µM [rising, partial curve, poor fit]
O=C(O)c1ccccc1Nc1ccnc(C(F)(F)F)c1	5.62 µM [rising, single point]	
COc1cc2c(cc1OC)C(C)N(C(=O)CCN1C(=O)C3C4C=CC(C4)C3C1=O)CC2 (configuration not stated)	29.1 µM [rising, single point]	
O=C(N/N=C/c1ccccn1)c1[nH]c2ccc([N+](=O)[O-])cc2c1-c1ccccc1	35.5 µM [rising, single point]	35.5 µM [falling, single point]
COc1cc(OC)cc(C(=O)OCC(=O)Nc2sccc2C(N)=O)c1	35.5 µM [falling, single point]	
O=C(Nc1ccc(S(=O)(=O)N2CCOCC2)cc1)c1ccco1	23.1 µM [rising, partial curve, poor fit]	
COc1cc(OC)c(C(=O)/C=C/c2ccc(OCc3ccccc3)c(OC)c2)c(OC)c1		12.6 µM [falling, single point]
CCOc1ccc(NC(=O)CN(C)C(=O)c2c(-c3ccccc3)noc2C)cc1OCC	23.1 µM [rising, single point]	
O=C(Nc1cccc(Cl)c1)N1CCN(c2ncccn2)CC1	29.1 µM [falling, single point]	
CC(C)(C)NS(=O)(=O)c1ccc(CCC(=O)Nc2cc(Cl)ccc2Oc2ccccc2)cc1	23.1 µM [falling, single point]	
Cc1ccc(NC(=O)c2ccc3c(c2)C(=O)N(CC2CCCO2)C3=O)cc1C (configuration not stated)	0.794 µM [rising, full curve, poor fit]	
Cc1ccc(OCC(=O)Nc2ccc([N+](=O)[O-])cc2)cc1	1.64 µM [rising, full curve]	
Cc1ccc(S(=O)(=O)N2CCN(C(=O)CSc3n[nH]c(N)n3)CC2)c(C)c1		29.1 µM [falling, partial curve, poor fit]
CCc1ccc(NC(=O)C(C)OC(=O)c2ccc(NS(=O)(=O)c3ccc(C)c([N+](=O)[O-])c3)cc2)cc1 (configuration not stated)	18.4 µM [falling, single point]	
Cc1cnc(NC(=O)c2ccccn2)s1	11.2 µM [falling, partial curve, poor fit]	
